Laboratory results taken from PubChem BioAssay AID1671190 (National Center for Advancing Translational Sciences (NCATS), 2021).
Hit rate of the full screen: of about 580,000 compounds, about 6,100 (1.1%) were called active. Inconclusive means that the source gave no clear call. Such entries were picked first, then a sample of the others. The call rests on the fitted dose curve; in most records, active means well fitted inhibition curve with a large enough effect; inconclusive means small, poorly fitted or top-dose-only effect, or another doubt; inactive means no such curve, though single readings can be large or run the other way. A potency beside an inconclusive call is a rough fit, not a confirmed value.

Protein sequences, listed by entry. Tags and fused reporters are not part of them. Lines headed by an entry give the natural chain unless they say otherwise; changes in a name come on top.
UniProt P18054: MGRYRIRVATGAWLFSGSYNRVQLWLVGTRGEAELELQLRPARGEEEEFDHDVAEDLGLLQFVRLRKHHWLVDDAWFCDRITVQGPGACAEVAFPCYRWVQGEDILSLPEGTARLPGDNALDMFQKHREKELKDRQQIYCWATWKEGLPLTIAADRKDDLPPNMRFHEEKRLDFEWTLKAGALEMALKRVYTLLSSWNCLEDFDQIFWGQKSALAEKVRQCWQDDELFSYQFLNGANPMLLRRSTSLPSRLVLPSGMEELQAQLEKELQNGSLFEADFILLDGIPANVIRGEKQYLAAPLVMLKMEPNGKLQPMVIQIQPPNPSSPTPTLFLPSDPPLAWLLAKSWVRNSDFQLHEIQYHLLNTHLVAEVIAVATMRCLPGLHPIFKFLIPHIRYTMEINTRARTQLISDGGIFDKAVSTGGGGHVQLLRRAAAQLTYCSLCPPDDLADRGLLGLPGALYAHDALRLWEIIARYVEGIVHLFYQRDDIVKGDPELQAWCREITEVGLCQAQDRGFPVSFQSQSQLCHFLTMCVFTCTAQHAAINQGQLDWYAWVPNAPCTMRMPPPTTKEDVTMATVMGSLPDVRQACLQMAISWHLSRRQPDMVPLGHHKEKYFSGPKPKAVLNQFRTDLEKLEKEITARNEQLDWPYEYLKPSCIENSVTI

These compounds were tested against Polyunsaturated fatty acid lipoxygenase ALOX12 (Homo sapiens) (UniProt P18054) (assay: Primary qHTS assay for inhibitors of human arachidonate 12S-lipoxygenase (ALOX12): Round 2). Settings: purified 12hLO, xylenol orange hydroperoxide absorbance; activity change, negative = inhibition: at 108 µM (top of the series) unless noted.
Procedure, shortened: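 Hydroperoxide product was detected by ferrous iron/xylenol orange as the 573 to 405 nm absorbance ratio. Arachidonic acid at 40 uM (final) was turned over for 30 min at room temperature by 150 nM human 12hLO, pH 7.0 Hepes buffer, after 15 min compound preincubation.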
On the % scale 0 is the no-effect control and ±100 the full control effect; potency means the concentration at half of the fitted maximal effect.

| SMILES | Potency | activity change, negative = inhibition |
| --- | --- | --- |
| CC(C)c1ccc(NC(=O)c2ccc(Cn3nc(N4CCN(c5ccccc5)CC4)ccc3=O)o2)cc1 | inconclusive: 56.2 µM [inhibitor, partial curve, poor fit] |  |
| C=CCSC1=C(C#N)C(c2ccccc2OCC)C(C#N)C(=O)N1 (stereo not given) | inconclusive: 28.2 µM [inhibitor, partial curve] |  |
| Cc1nc2sc(C#N)c(N)c2c(C)c1Cl |  | inactive: 11.8% |
| NS(=O)(=O)c1ccc(CCNc2ccn3nc(-c4cccc(C(F)(F)F)c4)cc3n2)cc1 |  | inactive: -0.25% |
| CCN(CC)S(=O)(=O)c1cccc(NC(=S)Nc2cc(C)ccc2C)c1 | inconclusive: 141 µM [inhibitor, partial curve, poor fit] |  |
| CC(C)c1ccc(C2CC(c3ccc(Br)cc3)=NN2C(N)=S)cc1 (stereo not given) | active: 44.7 µM |  |
| CCn1c(=NC(=O)c2ccc(S(=O)(=O)N3CCCC3)cc2)sc2cc(Br)ccc21 |  | inactive: -5.18% |
| CCN(CCO)c1ncnc2onc(-c3ccc(F)cc3)c12 |  | inactive: 9.17% |
| COc1cc(SC)ccc1C(=O)OCC(=O)N1CCN(C(C)=O)CC1 | inconclusive: 112 µM [inhibitor, partial curve, poor fit] |  |
| COC(=O)C1=C(C)N(Cc2ccccc2C(F)(F)F)C(=NCc2ccc(C(F)(F)F)cc2)NC1c1cccc(F)c1 (stereo not given) | inconclusive: 100 µM [inhibitor, partial curve, poor fit] |  |
| Cc1nn(-c2ccccc2)c(C)c1C(=O)OC(C)C(=O)NC1CCCCC1 (stereo not given) |  | inactive: -10.2% |
| Cc1ccc(S(=O)(=O)C2(C(=O)NCc3ccc4c(c3)OCO4)CC2)cc1 |  | inactive: 35.8% |
| COc1ccc(C(C(=O)NC2CCCCC2)n2c(=O)c(-c3cc4ccccc4[nH]3)nc3ccccc32)cc1 (stereo not given) | inconclusive: 112 µM [inhibitor, single point] |  |
| COCC1CN(C)CC12CCN(C(=O)c1ccc(C)cc1C)CC2 (stereo not given) |  | inactive: 0.385% |
| CCN(CCCNC(=O)c1cc2cc3ccc(OC)cc3nc2s1)c1cccc(C)c1 | inconclusive: 112 µM [inhibitor, partial curve, poor fit] |  |
| COc1cc2c(cc1OC)/C(=C/C(=O)N1CCOCC1)NC(C)(C)C2 | inconclusive: 15.8 µM [inhibitor, full curve] |  |
| O=C(O)C1=C[C@H](c2ccc3c(c2)OCO3)C[C@H](OCc2ccc(CO)cc2)O1 |  | inactive: -22.2% |
| O=C(CN1C(=O)NC2(CCOCC2)C1=O)NCCc1cccs1 |  | inactive: 35% |
| CCNC(=O)c1coc(COc2ccc3c(c2)C(c2cccc(F)c2)N(C(=O)C(C)(C)C)CC3)n1 (stereo not given) |  | inactive: 6.96% |
| CCc1nnc(SCC(=O)Nc2c(Cl)cccc2Cl)n1-n1cccc1 |  | inactive: 1.33% |

In the list so far, these have a cyano group.

| SMILES | Potency | activity change, negative = inhibition |
| --- | --- | --- |
| C=CCSC1=C(C#N)C(c2ccccc2OCC)C(C#N)C(=O)N1 (stereo not given) | inconclusive: 28.2 µM [inhibitor, partial curve] |  |
| Cc1nc2sc(C#N)c(N)c2c(C)c1Cl |  | inactive: 11.8% |
